Source: the supplement of paper PMC10849652
This is one part of the list.

The chains behind the UniProt entries cited, without tags or fusion partners. Where a name states a change or a piece, a line headed by the entry shows the natural chain unless it says otherwise.
UniProt O94822: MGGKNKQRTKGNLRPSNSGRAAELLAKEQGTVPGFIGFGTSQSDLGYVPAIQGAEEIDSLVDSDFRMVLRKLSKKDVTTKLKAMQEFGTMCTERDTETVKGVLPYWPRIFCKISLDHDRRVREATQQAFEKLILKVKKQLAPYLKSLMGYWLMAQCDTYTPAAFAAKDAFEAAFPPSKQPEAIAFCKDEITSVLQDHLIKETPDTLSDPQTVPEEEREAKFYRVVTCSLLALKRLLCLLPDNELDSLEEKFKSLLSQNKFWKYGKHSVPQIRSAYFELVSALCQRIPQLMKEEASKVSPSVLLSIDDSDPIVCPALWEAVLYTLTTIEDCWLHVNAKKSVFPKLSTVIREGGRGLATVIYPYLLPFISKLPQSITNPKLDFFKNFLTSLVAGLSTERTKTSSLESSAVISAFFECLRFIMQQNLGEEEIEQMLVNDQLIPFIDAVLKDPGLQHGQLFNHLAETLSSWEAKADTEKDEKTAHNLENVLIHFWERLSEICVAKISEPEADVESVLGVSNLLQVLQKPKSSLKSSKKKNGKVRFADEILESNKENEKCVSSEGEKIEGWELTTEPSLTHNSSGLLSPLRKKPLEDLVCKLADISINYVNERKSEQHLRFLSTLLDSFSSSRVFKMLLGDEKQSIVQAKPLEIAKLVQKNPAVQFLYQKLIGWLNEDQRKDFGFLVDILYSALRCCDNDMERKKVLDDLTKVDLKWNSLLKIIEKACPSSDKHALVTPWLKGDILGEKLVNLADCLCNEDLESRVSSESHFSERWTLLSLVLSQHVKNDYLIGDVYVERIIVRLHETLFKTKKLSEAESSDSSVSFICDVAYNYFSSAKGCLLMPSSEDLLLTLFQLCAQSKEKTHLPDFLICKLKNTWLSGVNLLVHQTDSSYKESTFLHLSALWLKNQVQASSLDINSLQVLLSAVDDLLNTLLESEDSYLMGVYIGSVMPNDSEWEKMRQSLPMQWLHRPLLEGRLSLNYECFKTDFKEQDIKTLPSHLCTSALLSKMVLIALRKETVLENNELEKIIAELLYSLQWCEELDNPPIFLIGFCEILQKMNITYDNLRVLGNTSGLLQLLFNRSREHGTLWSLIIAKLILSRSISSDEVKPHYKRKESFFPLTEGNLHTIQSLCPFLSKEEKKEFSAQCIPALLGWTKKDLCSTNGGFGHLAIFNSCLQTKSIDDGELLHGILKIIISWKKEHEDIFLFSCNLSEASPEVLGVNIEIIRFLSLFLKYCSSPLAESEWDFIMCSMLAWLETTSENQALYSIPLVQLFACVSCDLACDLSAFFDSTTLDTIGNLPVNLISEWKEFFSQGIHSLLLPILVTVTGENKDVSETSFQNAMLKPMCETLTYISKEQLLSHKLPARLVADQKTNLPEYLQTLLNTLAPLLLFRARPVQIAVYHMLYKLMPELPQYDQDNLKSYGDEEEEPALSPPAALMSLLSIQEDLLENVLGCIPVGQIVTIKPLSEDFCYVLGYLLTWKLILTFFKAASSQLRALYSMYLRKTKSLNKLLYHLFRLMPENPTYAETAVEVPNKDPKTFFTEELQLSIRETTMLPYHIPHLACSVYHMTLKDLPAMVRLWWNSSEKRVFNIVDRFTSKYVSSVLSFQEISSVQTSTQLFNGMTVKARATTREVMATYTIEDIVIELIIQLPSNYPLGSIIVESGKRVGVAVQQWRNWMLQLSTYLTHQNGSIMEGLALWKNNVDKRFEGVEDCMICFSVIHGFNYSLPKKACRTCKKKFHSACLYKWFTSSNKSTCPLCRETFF
UniProt Q9NU23: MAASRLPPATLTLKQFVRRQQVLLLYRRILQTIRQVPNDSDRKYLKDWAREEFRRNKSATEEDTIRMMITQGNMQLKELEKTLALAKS
UniProt Q7Z3D4: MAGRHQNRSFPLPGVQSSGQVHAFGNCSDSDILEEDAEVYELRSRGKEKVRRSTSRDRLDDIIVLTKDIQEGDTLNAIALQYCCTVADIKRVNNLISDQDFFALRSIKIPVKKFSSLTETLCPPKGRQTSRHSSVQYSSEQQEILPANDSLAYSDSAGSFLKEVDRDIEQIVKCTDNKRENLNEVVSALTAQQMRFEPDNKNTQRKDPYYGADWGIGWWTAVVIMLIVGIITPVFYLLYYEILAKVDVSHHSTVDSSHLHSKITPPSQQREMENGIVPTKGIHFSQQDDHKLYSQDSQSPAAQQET
UniProt O15479: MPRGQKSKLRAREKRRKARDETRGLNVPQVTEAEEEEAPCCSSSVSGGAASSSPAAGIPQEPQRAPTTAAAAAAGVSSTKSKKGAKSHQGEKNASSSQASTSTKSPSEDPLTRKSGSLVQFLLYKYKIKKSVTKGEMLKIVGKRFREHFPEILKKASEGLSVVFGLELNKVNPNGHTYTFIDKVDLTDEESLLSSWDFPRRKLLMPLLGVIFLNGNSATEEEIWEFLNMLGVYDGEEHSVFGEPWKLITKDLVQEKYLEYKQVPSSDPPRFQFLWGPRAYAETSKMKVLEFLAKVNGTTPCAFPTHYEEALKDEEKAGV
UniProt Q9H063: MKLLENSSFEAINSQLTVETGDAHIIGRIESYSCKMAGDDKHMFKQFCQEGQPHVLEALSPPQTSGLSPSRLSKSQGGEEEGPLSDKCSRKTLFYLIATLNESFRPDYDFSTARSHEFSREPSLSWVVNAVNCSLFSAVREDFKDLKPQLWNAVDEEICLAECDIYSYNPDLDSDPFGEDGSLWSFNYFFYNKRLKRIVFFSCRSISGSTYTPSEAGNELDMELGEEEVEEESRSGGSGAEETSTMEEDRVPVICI
UniProt Q5VWZ2: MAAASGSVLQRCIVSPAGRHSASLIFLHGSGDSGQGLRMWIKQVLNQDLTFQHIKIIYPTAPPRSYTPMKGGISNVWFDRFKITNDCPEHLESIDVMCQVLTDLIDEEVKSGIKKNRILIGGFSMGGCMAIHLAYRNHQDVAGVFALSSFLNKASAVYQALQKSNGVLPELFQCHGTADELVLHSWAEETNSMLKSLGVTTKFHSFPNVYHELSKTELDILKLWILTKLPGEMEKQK
UniProt O60732: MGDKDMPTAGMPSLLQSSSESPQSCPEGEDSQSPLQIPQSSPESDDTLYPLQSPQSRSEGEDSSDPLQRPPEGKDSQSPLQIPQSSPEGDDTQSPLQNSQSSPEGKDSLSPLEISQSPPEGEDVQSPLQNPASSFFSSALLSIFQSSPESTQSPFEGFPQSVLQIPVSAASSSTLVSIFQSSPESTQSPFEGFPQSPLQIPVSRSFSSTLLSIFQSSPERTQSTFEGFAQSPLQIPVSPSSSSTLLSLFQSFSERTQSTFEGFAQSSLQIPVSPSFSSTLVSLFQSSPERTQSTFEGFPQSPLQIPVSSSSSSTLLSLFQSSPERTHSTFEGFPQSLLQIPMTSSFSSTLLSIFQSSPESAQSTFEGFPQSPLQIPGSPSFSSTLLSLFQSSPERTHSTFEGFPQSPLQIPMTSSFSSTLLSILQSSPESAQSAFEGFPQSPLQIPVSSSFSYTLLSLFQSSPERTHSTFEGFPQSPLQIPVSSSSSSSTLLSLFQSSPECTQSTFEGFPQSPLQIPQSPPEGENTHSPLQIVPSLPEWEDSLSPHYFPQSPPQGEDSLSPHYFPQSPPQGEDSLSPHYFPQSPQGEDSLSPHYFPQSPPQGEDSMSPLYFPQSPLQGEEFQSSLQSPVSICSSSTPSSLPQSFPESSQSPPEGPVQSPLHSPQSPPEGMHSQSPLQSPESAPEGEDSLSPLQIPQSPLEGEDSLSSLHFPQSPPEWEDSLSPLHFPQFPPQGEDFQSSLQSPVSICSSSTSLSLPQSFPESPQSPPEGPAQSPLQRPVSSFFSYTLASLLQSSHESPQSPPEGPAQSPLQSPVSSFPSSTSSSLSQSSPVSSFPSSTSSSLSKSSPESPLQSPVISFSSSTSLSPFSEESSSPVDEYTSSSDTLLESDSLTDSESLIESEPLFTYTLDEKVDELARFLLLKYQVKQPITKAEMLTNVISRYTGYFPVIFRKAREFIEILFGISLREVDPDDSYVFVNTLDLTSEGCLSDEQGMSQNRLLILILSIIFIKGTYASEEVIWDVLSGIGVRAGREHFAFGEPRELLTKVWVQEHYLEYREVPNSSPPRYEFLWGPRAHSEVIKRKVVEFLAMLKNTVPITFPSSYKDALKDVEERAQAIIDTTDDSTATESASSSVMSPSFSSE
UniProt Q8IV50: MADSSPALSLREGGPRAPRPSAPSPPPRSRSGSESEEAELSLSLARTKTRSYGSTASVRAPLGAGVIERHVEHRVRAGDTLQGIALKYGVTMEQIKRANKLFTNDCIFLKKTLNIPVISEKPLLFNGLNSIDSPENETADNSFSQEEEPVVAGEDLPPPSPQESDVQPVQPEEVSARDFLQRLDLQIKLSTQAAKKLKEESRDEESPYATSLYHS
UniProt Q9UNF1: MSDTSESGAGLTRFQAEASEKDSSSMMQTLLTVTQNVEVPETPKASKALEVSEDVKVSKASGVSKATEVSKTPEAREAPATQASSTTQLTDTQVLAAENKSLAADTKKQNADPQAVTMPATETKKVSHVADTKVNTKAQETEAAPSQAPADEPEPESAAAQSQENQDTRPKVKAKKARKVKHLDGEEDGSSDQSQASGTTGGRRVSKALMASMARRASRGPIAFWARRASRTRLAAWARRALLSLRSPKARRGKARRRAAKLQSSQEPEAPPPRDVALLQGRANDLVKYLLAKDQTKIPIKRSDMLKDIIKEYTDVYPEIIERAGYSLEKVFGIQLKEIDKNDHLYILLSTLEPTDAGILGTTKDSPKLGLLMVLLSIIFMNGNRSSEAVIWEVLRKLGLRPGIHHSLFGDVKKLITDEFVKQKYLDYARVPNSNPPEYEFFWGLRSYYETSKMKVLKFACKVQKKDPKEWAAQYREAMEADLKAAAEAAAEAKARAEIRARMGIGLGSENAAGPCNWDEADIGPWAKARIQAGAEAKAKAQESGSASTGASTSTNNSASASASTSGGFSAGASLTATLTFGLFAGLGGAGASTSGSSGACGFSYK
UniProt Q9NZL9, whole entry, looked up: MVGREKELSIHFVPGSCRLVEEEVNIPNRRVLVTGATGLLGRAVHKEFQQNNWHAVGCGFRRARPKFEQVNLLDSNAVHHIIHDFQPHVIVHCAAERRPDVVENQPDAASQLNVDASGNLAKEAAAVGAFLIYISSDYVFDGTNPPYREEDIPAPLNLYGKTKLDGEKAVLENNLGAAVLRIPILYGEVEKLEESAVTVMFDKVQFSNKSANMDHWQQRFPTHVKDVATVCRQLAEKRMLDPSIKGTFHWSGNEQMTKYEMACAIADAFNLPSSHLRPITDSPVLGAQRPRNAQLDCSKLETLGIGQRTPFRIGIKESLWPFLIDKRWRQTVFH
UniProt Q96S90: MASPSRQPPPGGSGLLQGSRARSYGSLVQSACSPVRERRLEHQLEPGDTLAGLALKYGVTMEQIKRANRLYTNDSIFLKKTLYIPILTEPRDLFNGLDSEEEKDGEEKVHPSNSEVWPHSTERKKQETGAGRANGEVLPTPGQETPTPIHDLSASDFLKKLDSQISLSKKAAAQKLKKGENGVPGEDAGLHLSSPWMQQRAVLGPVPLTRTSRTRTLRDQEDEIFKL
UniProt P46734: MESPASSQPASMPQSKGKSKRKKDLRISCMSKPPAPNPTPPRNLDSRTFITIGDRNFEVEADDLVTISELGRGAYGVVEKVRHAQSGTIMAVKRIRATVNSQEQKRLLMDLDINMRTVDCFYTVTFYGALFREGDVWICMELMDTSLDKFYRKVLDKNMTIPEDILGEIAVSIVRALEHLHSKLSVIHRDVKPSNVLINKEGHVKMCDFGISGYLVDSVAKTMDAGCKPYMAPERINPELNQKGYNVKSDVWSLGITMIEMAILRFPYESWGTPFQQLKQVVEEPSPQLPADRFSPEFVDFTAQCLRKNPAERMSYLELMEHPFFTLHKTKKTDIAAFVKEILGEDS

What follows are targets tested with C#Cc1cccc(Nc2ncnc3cc(OCCOC)c(OCCOC)cc23)c1 [erlotinib] (assay: log2 fold change, soluble protein after heating vs DMSO (PISA); higher = thermal stabilisation; K562 lysate, 10 uM; active = over 0.2 and 3.5 SD of the protein, either way, in both replicates (recomputed)).
Outline: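 Soluble protein was defined as the supernatant remaining after 21,000xg for 90 min, following pooling of heated aliquots and adjustment to 0.5% NP-40 at 4°C. Before that, crude K562 extract at 1 mg/mL protein in PBS pH 7.4 with 1 mM MgCl2 was treated with 10 μM compound for 30 min and heated for 3 min across 48°C-58°C. Quantification used TMTpro 16plex LC-MS/MS with channel sums equalised, and values are log-two fold changes in thermal stability relative to solvent controls from duplicates.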

log2 fold change, inactive:
MAD2L1BP isoform 3 (UniProt Q15013) 0.067
LTN1 isoform 3 (UniProt O94822) 0.028
LYRM2 (UniProt Q9NU23) -0.01
LYSMD3 (UniProt Q7Z3D4) -0.067
MAP2K2 (UniProt P36507) 0.049
MAGEB2 (UniProt O15479) 0.011
MAF1 (UniProt Q9H063) 0.04
LYAR (UniProt Q9NX58) -0.007
MANBA (UniProt O00462) 0.005
MAP1B (UniProt P46821) -0.02
LYPLAL1 (UniProt Q5VWZ2) 0.007
MADD isoform 4 (UniProt Q8WXG6) 0.045
MAGEC1 (UniProt O60732) 0.055
MAGI3 isoform 1 (UniProt Q5TCQ9) -0.06
MAN1A2 (UniProt O60476) -0.011
LYSMD2 (UniProt Q8IV50) -0.013
MAGED2 (UniProt Q9UNF1) 0.042
MAPRE2 (UniProt Q15555) -0.074
MAP3K20 isoform 2 (UniProt Q9NYL2) -0.032
MAT2B (UniProt Q9NZL9) -0.009
LYSMD1 (UniProt Q96S90) -0.015
MAP2K3 isoform 3 (UniProt P46734) 0.048

2 entries drawn at random from the list so far, as already listed:
log2 fold change, inactive:
LTN1 isoform 3 (UniProt O94822) 0.028
LYSMD2 (UniProt Q8IV50) -0.013
